The values that follow come from the supplement of paper PMC4256282, “Profound Activity of the Anti-cancer Drug Bortezomib against Echinococcus multilocularis Metacestodes Identifies the Proteasome as a Novel Drug Target for Cestodes” (PLoS Neglected Tropical Diseases, 2014).

Where a name gives a salt, the structure may show the parent alone. This is one part of the list. Repeats are few or missing, and single values can be far off.

The assay concerns Echinococcus multilocularis metacestodes. As to the kind of experiment: vesicle damage (PGI release) relative to positive control DB1127 at 20 µM, DMSO subtracted; higher = more parasite damage. To be noted: treatment time 5 days.
As to `CN[C@@H]1[C@H](O)[C@H](NC)[C@H]2O[C@@]3(O)C(=O)C[C@@H](C)O[C@H]3O[C@@H]2[C@H]1O` [Spectinomycin  hcl], the vesicle damage came to 1.04%.

In the case of `CCCSc1ccc2[nH]c(NC(=O)OC)nc2c1` [Albendazole], the vesicle damage stood at 2.11%.

Turning to `C=C1[C@H](CO)[C@@H](O)C[C@@H]1n1cnc2c(=O)[nH]c(N)nc21` [Entecavir hydrate], the vesicle damage was -0.988%.

On to `NS(=O)(=O)c1cc2c(cc1Cl)N=CNS2(=O)=O` [Chlorothiazide], for which the vesicle damage amounted to 6.87%.

For `CO/N=C(\C(=O)N[C@@H]1C(=O)N2C(C(=O)OCOC(=O)C(C)(C)C)=C(/C=C\c3scnc3C)CS[C@H]12)c1csc(N)n1` [Cefditoren pivoxil], the vesicle damage was -13.1%.

Turning to `CCCc1nc2c(C)cc(-c3nc4ccccc4n3C)cc2n1Cc1ccc(-c2ccccc2C(=O)O)cc1` [Telmisartan], the vesicle damage is -12.5%.

As for `CCc1c2c(nc3ccc(OC(=O)N4CCC(N5CCCCC5)CC4)cc13)-c1cc3c(c(=O)n1C2)COC(=O)[C@]3(O)CC` [Irinotecan Hcl Trihydrate], the vesicle damage turned out to be 7.36%.
